Laboratory results taken from patent US20160017348A1.
No constants are given. Whether binding was seen depends on the method and setting. Binding seen in cells or lysates may run through a third protein. These calls come from enrichment with a bait or labelling near it, and not all partners need be listed. Sequences can lack the tags named with a protein.

Biological target: T1, SUVH2 (Arabidopsis thaliana) (UniProt O22781)
T1 sequence: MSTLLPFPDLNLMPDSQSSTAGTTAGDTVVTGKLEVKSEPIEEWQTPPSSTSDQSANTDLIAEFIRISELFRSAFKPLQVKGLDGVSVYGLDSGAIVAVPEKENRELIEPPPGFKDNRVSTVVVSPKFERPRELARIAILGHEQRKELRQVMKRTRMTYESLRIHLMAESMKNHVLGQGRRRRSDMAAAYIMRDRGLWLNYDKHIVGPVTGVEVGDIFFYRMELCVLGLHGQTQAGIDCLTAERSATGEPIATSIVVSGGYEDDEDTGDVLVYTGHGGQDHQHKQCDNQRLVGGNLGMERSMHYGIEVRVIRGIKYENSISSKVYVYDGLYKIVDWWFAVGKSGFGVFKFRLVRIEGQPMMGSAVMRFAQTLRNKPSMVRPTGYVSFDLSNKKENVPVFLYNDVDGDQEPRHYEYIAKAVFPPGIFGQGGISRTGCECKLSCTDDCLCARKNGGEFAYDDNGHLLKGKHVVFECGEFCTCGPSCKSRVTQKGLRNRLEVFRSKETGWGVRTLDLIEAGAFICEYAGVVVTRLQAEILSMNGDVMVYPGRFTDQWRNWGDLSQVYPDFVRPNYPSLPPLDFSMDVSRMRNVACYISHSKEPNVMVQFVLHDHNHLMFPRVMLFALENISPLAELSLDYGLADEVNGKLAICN
Test: immunoprecipitation of epitope-tagged DRD1 and mass spectrometry

B1: DRD1-Flag (protein, not shown: small tags and cut ends)
chain: MGFVYIVMTGYYKNVHKRKQNQVDDGPEAKRVKSSAKVIDYSNPFAVSNMLEALDSGKFGSVSKELEEIADMRMDLVKRSIWLYPSLAYTVFEAEKTMDNQQVVEGVINLDDDDDDDTDVEKKALCVVPSSSEIVLLDSDDEDNERQRPMYQFQSTLVQHQKNQGDVTPLIPQCSFEEVDLGRGKEMPSAIKAIVEGQTSRGKVLPIENGVVNEKGVYVGVEEDDSDNESEAADEDLGNIWNEMALSIECSKDVARETSHKEKADVVEDCEHSFILKDDMGYVCRVCGVIEKSILEIIDVQFTKAKRNTRTYASETRTKRFGESDNELKFSEEGLMIGGLAAHPTHAAEMKPHQIEGFQFLCSNLVADDPGGCIMAHAPGSGKTFMIISFMQSFLAKYPQAKPLVVLPKGILPTWKKEFVRWQVEDIPLLDFYSAKAENRAQQLSILKQWMEKKSILFLGYQQFSTIVCDDTTDSLSCQEILLKVPSILILDEGHTPRNEDTNLLQSLAQVQTPRKVVLSGTLYQNHVKEVFNILNLVRPKFLKLDTSKSAVKRILAYTPCDVRGRLTGSNSDMASMFNETVEHTLQKSEDFTVKIKVIQDLREMTKKVLHYYKGDFLDELPGLADFTVVLNLSPKQLNEVKKLRREKRKFKVSAVGSAIYLHPKLKVFSDKSDDVSDTTMDEMVEKLDLNEGVKAKFFLNLINLCDSAGEKLLVFSQYLIPLKFLERLAALAKGWKLGKEVFVLTGNTSSEQREWSMETFNSSPDAKIFFGSIKACGEGISLVGASRILILDVPLNPSVTRQAIGRAFRPGQKKMVHAYRLIAGSSPEEEDHNTCFKKEVISKMWFEWNEYCGYQNFEVETIDVDEAGDTFLESPALREDIRVLYKR
binding: binds
